Laboratory results as given in ChEMBL document CHEMBL1148303, “Design and synthesis of alpha-aryloxy-alpha-methylhydrocinnamic acids: a novel class of dual peroxisome proliferator-activated receptor alpha/gamma agonists” (J Med Chem, 2004).

Experiments:
[1] = target: T1, Peroxisome proliferator-activated receptor gamma (Homo sapiens, UniProt P37231)
T1 sequence (P37231 whole entry): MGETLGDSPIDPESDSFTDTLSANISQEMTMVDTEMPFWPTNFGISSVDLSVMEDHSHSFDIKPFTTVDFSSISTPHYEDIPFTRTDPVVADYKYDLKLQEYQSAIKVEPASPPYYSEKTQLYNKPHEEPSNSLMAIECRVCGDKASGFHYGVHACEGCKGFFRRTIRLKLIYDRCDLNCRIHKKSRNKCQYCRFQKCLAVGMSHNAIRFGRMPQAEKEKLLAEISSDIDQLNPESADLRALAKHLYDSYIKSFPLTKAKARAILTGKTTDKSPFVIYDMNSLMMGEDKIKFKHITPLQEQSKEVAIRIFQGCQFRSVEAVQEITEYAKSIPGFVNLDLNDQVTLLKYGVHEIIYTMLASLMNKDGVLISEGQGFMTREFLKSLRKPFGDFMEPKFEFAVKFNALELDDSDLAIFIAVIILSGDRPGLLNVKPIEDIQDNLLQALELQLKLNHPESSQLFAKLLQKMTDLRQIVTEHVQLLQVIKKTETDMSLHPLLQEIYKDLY

[2] = target: T1, Peroxisome proliferator-activated receptor gamma; remark: listed apart in the source

| SMILES | EC50 [1] | IC50 [2] |
| --- | --- | --- |
| Cc1oc(-c2cccc(-c3ccccc3)c2)nc1CCOc1ccc(CC(C)(Oc2ccccc2)C(=O)O)cc1 (centres undefined) | 6 nM | 71 nM |
| Cc1oc(-c2ccc(-c3ccccc3)cc2)nc1CCOc1ccc(CC(C)(Oc2ccccc2)C(=O)O)cc1 (centres undefined) | 7 nM | 169 nM |
